According to patent US8252764B2, “Compositions and methods of use of targeting peptides against placenta and adipose tissues” (priority 2000, dated 2012):

Test system: mouse placenta
Assay: In vivo biopanning of phage display library in pregnant mice with post-clearing (clone frequency)
Details: for frequency of phage clone in round III: round III of in vivo biopanning on placenta; for frequency of phage clone in round IV: after post-clearing in non-pregnant mouse

Row | Substance | frequency of phage clone in round III | frequency of phage clone in round IV
1 | LGLRSVG | < 1% | 5.3%
2 | RAPGGVR | < 1% | 8.5%
3 | RMDGPVR | 3.1% | 8.5%
4 | TPKTSVT [placenta targeting peptide] | 7.4% | 8.5%
5 | VGLHARA | 4.2% | 7.4%
6 | YIRPFTL | 2.1% | 5.3%
